The values that follow come from PMC12766987.

Results are given in words; binding and its absence hold for the method and conditions named. In cells and extracts the contact can be indirect. Some entries that bind do so weakly or less than the wild type. For some of these results: Tags and fused reporters may be left off the sequences shown.

In experiment [1] the target is T1, Flag-tagged Calhm6 (293T) (UniProt Q8C9E8).
T1 sequence: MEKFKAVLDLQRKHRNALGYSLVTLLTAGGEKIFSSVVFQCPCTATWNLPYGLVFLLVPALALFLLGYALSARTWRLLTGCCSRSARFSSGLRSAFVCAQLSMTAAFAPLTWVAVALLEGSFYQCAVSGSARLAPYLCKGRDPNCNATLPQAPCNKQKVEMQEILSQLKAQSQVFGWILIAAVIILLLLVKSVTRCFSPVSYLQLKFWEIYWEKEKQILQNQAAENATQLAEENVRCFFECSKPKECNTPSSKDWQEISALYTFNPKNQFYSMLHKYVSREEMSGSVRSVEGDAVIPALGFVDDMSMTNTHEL
Put plainly: co-IP; 293T lysates, combinations of HA-Chp1, Myc-CaMK4 and Flag-Calhm6; anti-Flag IP, blot with anti-HA, anti-Myc, anti-Flag (Figure 7A, 7D).

A further experiment addresses T2, Myc-tagged CaMK4 (UniProt P08414).
T2 sequence: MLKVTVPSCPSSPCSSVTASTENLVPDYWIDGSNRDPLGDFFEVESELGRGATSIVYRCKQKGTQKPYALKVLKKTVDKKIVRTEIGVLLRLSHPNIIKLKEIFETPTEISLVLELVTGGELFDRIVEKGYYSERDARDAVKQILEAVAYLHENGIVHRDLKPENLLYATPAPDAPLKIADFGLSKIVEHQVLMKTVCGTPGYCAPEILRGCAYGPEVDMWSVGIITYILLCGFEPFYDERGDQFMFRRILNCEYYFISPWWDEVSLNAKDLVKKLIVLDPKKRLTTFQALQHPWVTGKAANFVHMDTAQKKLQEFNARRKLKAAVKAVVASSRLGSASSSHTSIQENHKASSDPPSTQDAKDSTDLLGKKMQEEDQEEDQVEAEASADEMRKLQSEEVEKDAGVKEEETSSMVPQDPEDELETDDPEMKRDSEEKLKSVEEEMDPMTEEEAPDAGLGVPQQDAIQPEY
Put plainly: co-IP; 293T cells, combinations of Myc-CaMK4, HA-Chp1 and Flag-Calhm6; anti-Myc immunoprecipitates probed with tag antibodies (Figure 7J, as in 7H).

Experiment [2] deals with T3, Calhm6, endogenous in BMDMs (mouse (endogenous in BMDMs)) (UniProt Q8C9E8).
T3 sequence: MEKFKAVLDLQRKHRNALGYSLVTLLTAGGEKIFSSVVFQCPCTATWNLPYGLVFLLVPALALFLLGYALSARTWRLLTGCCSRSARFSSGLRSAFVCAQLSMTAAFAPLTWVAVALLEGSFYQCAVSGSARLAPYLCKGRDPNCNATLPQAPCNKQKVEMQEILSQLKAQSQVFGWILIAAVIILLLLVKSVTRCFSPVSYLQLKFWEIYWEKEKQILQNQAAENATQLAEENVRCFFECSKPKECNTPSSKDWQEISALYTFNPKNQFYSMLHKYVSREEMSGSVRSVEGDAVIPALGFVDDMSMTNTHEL
Put plainly: co-IP; immunoprecipitates of wild-type BMDMs treated for 0 or 60 min with IL-4; precipitating antibody not told (Figure 7I).

Experiment [3] deals with T4, CaMK4, endogenous in BMDMs (mouse (endogenous in BMDMs)) (UniProt P08414).
T4 sequence: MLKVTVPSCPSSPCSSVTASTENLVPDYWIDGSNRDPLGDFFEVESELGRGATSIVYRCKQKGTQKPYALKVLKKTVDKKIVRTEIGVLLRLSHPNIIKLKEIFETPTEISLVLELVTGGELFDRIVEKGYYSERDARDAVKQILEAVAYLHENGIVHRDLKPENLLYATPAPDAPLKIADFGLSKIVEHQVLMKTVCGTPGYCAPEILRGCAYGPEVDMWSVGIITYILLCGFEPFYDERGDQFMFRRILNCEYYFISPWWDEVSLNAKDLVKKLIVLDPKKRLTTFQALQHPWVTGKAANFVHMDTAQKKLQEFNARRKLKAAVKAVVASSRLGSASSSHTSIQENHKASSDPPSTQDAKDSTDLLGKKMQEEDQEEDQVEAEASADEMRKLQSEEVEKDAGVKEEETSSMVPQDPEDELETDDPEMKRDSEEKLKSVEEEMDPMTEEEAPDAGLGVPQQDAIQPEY
Described as above.

Experiment [4] has as its target T1, Flag-tagged Calhm6 (293T). Briefly: co-IP; Figure S7D-F, cited beside Figure 7K,L; format not shown.
The target of experiment [5] is T1, Flag-tagged Calhm6 (293T). Put plainly: co-IP; Calhm6 with Calhm6, with or without co-expression of Chp1 and CaMK4 (Figure S7C); tags and cells not shown.
Experiment [6] addresses T5, Flag-tagged wild-type Chp1 (UniProt P61022).
T5 sequence: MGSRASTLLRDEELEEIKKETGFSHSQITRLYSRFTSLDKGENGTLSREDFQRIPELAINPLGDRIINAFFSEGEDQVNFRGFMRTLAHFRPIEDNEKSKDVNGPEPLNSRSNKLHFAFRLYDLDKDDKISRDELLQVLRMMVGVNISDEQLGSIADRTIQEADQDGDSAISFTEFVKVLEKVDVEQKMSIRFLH
Briefly: co-IP; 293T lysates, Flag-tagged wild-type Chp1 or Chp1 (S99A) with HA-Calhm6; anti-Flag IP, blot with anti-HA and anti-Flag (Figure 7E).

B1: HA-tagged Chp1 (protein, UniProt P61022 1-195)
chain: MGSRASTLLRDEELEEIKKETGFSHSQITRLYSRFTSLDKGENGTLSREDFQRIPELAINPLGDRIINAFFSEGEDQVNFRGFMRTLAHFRPIEDNEKSKDVNGPEPLNSRSNKLHFAFRLYDLDKDDKISRDELLQVLRMMVGVNISDEQLGSIADRTIQEADQDGDSAISFTEFVKVLEKVDVEQKMSIRFLH
For the molecule B1, the binding entry (in experiment [1]; with Myc-tagged CaMK4) was “binds” in each case.

B2: Chp1, endogenous in BMDMs (protein, UniProt P61022 1-195)
chain: MGSRASTLLRDEELEEIKKETGFSHSQITRLYSRFTSLDKGENGTLSREDFQRIPELAINPLGDRIINAFFSEGEDQVNFRGFMRTLAHFRPIEDNEKSKDVNGPEPLNSRSNKLHFAFRLYDLDKDDKISRDELLQVLRMMVGVNISDEQLGSIADRTIQEADQDGDSAISFTEFVKVLEKVDVEQKMSIRFLH
Turning to B2, the binding entry in experiment [2] and in experiment [3] was “binds” each time.

B3: EF-hand 1 domain of Chp1 (residues 1-61) (domain or fragment, UniProt P61022 1-61)
chain: MGSRASTLLRDEELEEIKKETGFSHSQITRLYSRFTSLDKGENGTLSREDFQRIPELAINP
Regarding B3, the binding entry in experiment [4] is reported as “binds”.

B4: Flag-tagged Calhm6 (293T) (protein, UniProt Q8C9E8 1-313)
chain: MEKFKAVLDLQRKHRNALGYSLVTLLTAGGEKIFSSVVFQCPCTATWNLPYGLVFLLVPALALFLLGYALSARTWRLLTGCCSRSARFSSGLRSAFVCAQLSMTAAFAPLTWVAVALLEGSFYQCAVSGSARLAPYLCKGRDPNCNATLPQAPCNKQKVEMQEILSQLKAQSQVFGWILIAAVIILLLLVKSVTRCFSPVSYLQLKFWEIYWEKEKQILQNQAAENATQLAEENVRCFFECSKPKECNTPSSKDWQEISALYTFNPKNQFYSMLHKYVSREEMSGSVRSVEGDAVIPALGFVDDMSMTNTHEL
B4: the binding entry in experiment [5] is reported as “binds”.

B5: HA-tagged Calhm6 (protein, UniProt Q8C9E8 1-313)
chain: MEKFKAVLDLQRKHRNALGYSLVTLLTAGGEKIFSSVVFQCPCTATWNLPYGLVFLLVPALALFLLGYALSARTWRLLTGCCSRSARFSSGLRSAFVCAQLSMTAAFAPLTWVAVALLEGSFYQCAVSGSARLAPYLCKGRDPNCNATLPQAPCNKQKVEMQEILSQLKAQSQVFGWILIAAVIILLLLVKSVTRCFSPVSYLQLKFWEIYWEKEKQILQNQAAENATQLAEENVRCFFECSKPKECNTPSSKDWQEISALYTFNPKNQFYSMLHKYVSREEMSGSVRSVEGDAVIPALGFVDDMSMTNTHEL
Regarding B5, in experiment [6], the binding entry was “binds”.
